According to the supplement of paper PMC12067093, “Discovery and optimisation of a covalent ligand for TRIM25 and its application to targeted protein ubiquitination” (Chemical Science, 2025):
This is one part of the list.

Compound: CC1Cc2ccccc2N1C(=O)C1CCCN(C1)C(=O)CCl (mixture of isomers) [TRIM25 ligand 11 (diastereomer mixture)]
Assay: probe-labelled cysteine peptide fold change vs DMSO (competition) (log2 fold change); higher = less target engagement (more negative = stronger competition)
Conditions: THP-1, incubation time: 4 h
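Further: competitive chemoproteomic profiling in live THP-1 cells with an iodoacetamide desthiobiotin (IA-DTB) probe, comparing probe-labelled peptide intensities in compound-treated cells against DMSO-treated controls.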

| Target | probe-labelled cysteine peptide fold change (10 µM) | probe-labelled cysteine peptide fold change (50 µM) |
| --- | --- | --- |
| EPRS_P07814_692_RGFFICDQPYEPVSPYSCK (UniProt P07814) | 0.0432 | -0.176 |
| EP300_Q09472_1176+1177_KLEFSPQTLCCYGK (UniProt Q09472) | -0.118 | -0.147 |
| EIF3I_Q13347_76_HVLTGSADNSCR (UniProt Q13347) | -0.0321 | -0.0364 |
| ELP5_Q8TE02_61_SALCGEQVHILGCEVSEEEFR (UniProt Q8TE02) | 0.0192 | 0.276 |
| EIF3D_O15371_375_CEHDGVMTGANGEVSFINIK (UniProt O15371) | -0.0676 | -0.178 |
| EMG1_Q92979_134_FCGLMVQLLHK (UniProt Q92979) | -0.0081 | 0.097 |
| EIF4ENIF1_Q9NRA8_767_SSCSTPLSQANR (UniProt Q9NRA8) | -0.14 | -0.276 |
| EIF4G3_O43432_461_TCLSEDAK (UniProt O43432) | -0.0503 | -0.229 |
| EIF3B_P55884_527_NGDYLCVK (UniProt P55884) | -0.0279 | 0.102 |
| EIF3B_P55884_420_GFHCESSAHWPIFK (UniProt P55884) | 0.214 | -0.0511 |
| ELOVL1_Q9BW60_93_CDPVDYSNSPEALR (UniProt Q9BW60) | 0.0358 | 0.132 |
| EIF3L_Q9Y262_417_GDPQVYEELFSYSCPK (UniProt Q9Y262) | -0.255 | -0.0691 |
| EIF3D_O15371_404_HCNGVDWR (UniProt O15371) | -0.0977 | -0.0442 |
| EP300_Q09472_1250_RKNDTLDPELFVECTECGR (UniProt Q09472) | 0.0384 | 0.148 |
| EIF3D_O15371_19_FMTPVIQDNPSGWGPCAVPEQFR (UniProt O15371) | -0.167 | -0.2 |

Rewritten bar-delimited: part of the list above.
Target | probe-labelled cysteine peptide fold change (10 µM) | probe-labelled cysteine peptide fold change (50 µM)
EIF3L_Q9Y262_417_GDPQVYEELFSYSCPK (UniProt Q9Y262) | -0.255 | -0.0691
EIF3D_O15371_404_HCNGVDWR (UniProt O15371) | -0.0977 | -0.0442
